In patent US20130078251A1 (Hoffmann-La Roche, published 2013) one finds binding data, which are given here for 5 molecules.

Chains of the proteins cited; added tags and fusions are not shown. Residues count along the entry.
UniProt Q6UVK1, residues 30-2322: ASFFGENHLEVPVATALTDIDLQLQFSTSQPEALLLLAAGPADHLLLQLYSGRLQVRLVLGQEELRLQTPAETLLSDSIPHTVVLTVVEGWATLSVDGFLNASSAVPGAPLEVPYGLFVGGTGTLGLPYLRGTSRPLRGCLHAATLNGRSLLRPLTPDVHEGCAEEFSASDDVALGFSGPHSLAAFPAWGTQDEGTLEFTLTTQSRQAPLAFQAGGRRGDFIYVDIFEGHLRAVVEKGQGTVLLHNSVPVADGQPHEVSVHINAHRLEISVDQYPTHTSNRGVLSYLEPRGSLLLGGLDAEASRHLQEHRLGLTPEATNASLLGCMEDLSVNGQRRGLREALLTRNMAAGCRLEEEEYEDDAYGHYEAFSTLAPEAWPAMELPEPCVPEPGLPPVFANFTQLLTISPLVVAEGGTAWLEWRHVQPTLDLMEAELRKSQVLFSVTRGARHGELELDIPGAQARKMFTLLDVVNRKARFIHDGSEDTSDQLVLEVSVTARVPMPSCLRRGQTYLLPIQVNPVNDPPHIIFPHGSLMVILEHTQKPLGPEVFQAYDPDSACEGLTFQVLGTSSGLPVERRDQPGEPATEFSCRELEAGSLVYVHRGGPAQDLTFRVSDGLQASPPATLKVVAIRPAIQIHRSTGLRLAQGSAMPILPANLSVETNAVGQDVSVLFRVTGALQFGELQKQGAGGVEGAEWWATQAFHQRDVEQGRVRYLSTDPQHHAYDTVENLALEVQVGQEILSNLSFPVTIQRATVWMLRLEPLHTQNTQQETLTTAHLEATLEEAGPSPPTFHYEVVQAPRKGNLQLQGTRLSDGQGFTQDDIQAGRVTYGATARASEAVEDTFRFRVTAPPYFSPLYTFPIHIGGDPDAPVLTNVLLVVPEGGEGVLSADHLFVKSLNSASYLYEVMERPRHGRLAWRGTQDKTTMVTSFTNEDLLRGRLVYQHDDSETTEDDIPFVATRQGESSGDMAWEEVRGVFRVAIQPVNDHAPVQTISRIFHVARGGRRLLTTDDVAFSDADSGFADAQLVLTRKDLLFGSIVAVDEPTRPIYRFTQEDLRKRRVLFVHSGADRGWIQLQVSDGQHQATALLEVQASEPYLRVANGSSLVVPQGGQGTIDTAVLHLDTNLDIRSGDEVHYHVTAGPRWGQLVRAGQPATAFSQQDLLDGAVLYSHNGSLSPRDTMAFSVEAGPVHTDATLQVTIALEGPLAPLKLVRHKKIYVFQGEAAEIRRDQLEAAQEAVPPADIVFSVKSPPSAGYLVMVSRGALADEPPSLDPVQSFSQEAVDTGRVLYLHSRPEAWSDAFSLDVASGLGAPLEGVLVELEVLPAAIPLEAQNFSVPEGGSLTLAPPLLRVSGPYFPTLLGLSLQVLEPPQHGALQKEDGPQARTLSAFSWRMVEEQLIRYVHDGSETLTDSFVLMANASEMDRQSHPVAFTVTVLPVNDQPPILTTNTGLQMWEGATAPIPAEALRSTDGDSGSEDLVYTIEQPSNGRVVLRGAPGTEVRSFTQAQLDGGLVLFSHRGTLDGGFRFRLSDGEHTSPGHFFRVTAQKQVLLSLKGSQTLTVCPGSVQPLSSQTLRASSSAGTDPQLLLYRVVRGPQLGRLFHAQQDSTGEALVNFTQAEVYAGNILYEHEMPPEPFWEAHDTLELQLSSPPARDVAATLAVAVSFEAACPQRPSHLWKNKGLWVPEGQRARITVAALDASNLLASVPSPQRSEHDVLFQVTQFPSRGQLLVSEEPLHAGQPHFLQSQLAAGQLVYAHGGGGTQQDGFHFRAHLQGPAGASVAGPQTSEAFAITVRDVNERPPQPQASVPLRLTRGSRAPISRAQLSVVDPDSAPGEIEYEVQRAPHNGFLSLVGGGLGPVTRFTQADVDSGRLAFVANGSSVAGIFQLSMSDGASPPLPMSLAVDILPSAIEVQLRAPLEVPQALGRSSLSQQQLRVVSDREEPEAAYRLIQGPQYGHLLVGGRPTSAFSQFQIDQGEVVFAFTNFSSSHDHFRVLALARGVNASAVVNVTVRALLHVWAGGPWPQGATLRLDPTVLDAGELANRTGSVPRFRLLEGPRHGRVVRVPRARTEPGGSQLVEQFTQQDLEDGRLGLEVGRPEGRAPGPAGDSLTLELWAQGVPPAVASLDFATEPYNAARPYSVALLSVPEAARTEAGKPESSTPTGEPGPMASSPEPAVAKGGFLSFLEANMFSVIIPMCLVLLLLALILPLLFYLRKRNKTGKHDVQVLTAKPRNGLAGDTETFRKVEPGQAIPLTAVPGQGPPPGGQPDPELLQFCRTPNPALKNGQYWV

Experiment [1] deals with MCSP antigen (UniProt Q6UVK1). Put plainly: titration read as mean fluorescence (flow cytometry); the cells are not given.
In experiment [2] the target is MCSP antigen (UniProt Q6UVK1). Nature of the experiment: binding of humanized variants, FIG. 8.
Experiment [3] deals with MCSP antigen (UniProt Q6UVK1). Put plainly: Western blot; staining of fresh frozen and fixed tissue. For orientation: In western blotting, separated proteins are transferred to a membrane and probed.

No constants are given. Whether binding was seen depends on the method and setting. Some results given as binding are weak or reduced against the parent protein; the word gives no strength.

B1: M4-1 ML1 (antibody, V domains shown)
VH: QVQLQESGPGLVKPSQTLSLTCTVSGYSITSGYYWNWIRQHPGKGLEWIGYITYDGSNNYNPSLKSRVTISRDTSKNQFSLKLSSVTAADTAVYYCADFDYWGQGTLVTVSS
VL: DIQMTQSPSSLSASVGDRVTITCSASQGIRNYLNWYQQKPGKAPKLLIYYTSSLHSGVPSRFSGSGSGTDFTLTISSLQPEDFATYYCQQYSKLPWTFGQGTKVEIK
In the case of B1, the binding entry in experiment [1] is “binds”.

B2: M4-1 ML2 (antibody, V domains shown)
VH: QVQLQESGPGLVKPSQTLSLTCTVSGYSITSGYYWNWIRQHPGKGLEWIGYITYDGSNNYNPSLKSRVTISRDTSKNQFSLKLSSVTAADTAVYYCADFDYWGQGTLVTVSS
VL: DIQMTQSPSSLSASVGDRVTITCRASQGIRNYLNWYQQKPGKAPKLLIYYTSSLHSGVPSRFSGSGSGTDFTLTISSLQPEDFATYYCQQYSKLPWTFGQGTKVEIK
In the case of B2, in experiment [1], the binding result is recorded as “binds”.

B3: LC007 humanized construct M4-6 ML1 (antibody, V domains shown)
VH: QVQLQESGPGLVKPSQTLSLTCTVSGYSITSGYYWNWIRQHPGKGLEWIGYITYDGSNNYNPSLKSRVTISVDTSKNQFSLKLSSVTAADTAVYYCADFDYWGQGTLVTVSS
VL: DIQMTQSPSSLSASVGDRVTITCSASQGIRNYLNWYQQKPGKAPKLLIYYTSSLHSGVPSRFSGSGSGTDFTLTISSLQPEDFATYYCQQYSKLPWTFGQGTKVEIK
Take B3: the binding result in experiment [2] and in experiment [1] was “binds” each time.

B4: M4-3 ML1 (antibody, V domains shown)
VH: QVQLQESGPGLVKPSQTLSLTCTVSGGSITSGYYWNWIRQHPGKGLEWIGYITYDGSNNYNPSLKSRVTISRDTSKNQFSLKLSSVTAADTAVYYCADFDYWGQGTLVTVSS
VL: DIQMTQSPSSLSASVGDRVTITCSASQGIRNYLNWYQQKPGKAPKLLIYYTSSLHSGVPSRFSGSGSGTDFTLTISSLQPEDFATYYCQQYSKLPWTFGQGTKVEIK
Take B4: the binding entry in experiment [1] is recorded as “binds”.

B5: chimeric antibody LC007 (antibody, human IgG1, kappa, V domains shown)
VH: EVQLQESGPGLVKPSQSLSLTCSVTGYSITSGYYWNWIRQFPGNKLEWMGYITYDGSNNYNPSLKNRISITRDTSKNQFFLKLNSVTTEDTATYYCADFDYWGQGTTLTVSS
VL: DIVLTQSPSSLSASLGDRVTISCSASQGIRNYLNWYQQRPDGTVKLLIYYTSSLHSGVPSRFSGSGSGTDYSLTISNLEPEDIATYYCQQYSKLPWTFGGGTKLEIKR
notes: also called LC007 antibody; chimeric LC007
In the case of B5, the binding result in experiment [3] and in experiment [1] was “binds” each time.
